The other results are listed elsewhere or left out. The main result of the screen is listed elsewhere. These columns were measured beside it and carry no call. Most of these compounds were active or inconclusive in the main read-out, so they are no random draw. Words in brackets tell the shape of the fitted curve; partial curves, single points and poor fits give uncertain potencies.
Assay: qHTS Assay for Lipid Storage Modulators in Drosophila S3 Cells;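 for cell number change: cells counted by Cell Tracker Red CMTPX staining in the red channel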
Conditions: BODIPY lipid droplet fluorescence, 18-24 h; for cell number change: measured here: cell count max response, cells fed with added oleic acid
Method in brief: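 Laser-scanning cytometry quantifies lipid droplet accumulation (500–530 nm total intensity; droplet/cell object ratio) in oleic acid-fed (400 uM added) Drosophila S3 cells treated with a concentration series. 20 uM Triacsin C defined 100% inhibition.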

[1] = measured here: lipid fluorescence (Fed channel) AC50, cells fed with added oleic acid
[2] = measured here: cell number channel AC50, cells fed with added oleic acid

SMILES	cell number change [%]	AC50 [1]	AC50 [2]
O=C(CN1C(=O)NC2(CCCCCCC2)C1=O)Nc1ccc(Br)cc1	-8.48	0.58 µM [falling, full curve]	
COc1ccc(NC(=O)COc2ccc3c(c2)CCC3)cc1		5.8 µM [falling, full curve]	
CC(=O)Nc1ccc(S(=O)(=O)NC(C(=O)O)C2=CCC=CC2)cc1 (stereo unspecified)	-36.4		1.64 µM [falling, partial curve, poor fit]
COc1ccc(-n2c(Cc3cccn3C)nnc2SCC(=O)N2CCCc3ccccc32)cc1	117		
O=C(/C=C/Nc1cccc([N+](=O)[O-])c1)c1cccs1	132		32.6 µM [rising, partial curve, poor fit]
Cc1ccc(C(=O)CC(c2cccs2)S(=O)(=O)c2ccc(C)cc2)cc1 (stereo unspecified)	-3.25		
CCOc1ccc(OCC)c(NC(=O)CN2CCC(NC(=O)c3cccc(F)c3)CC2)c1	-0.471		
CC(C)COc1ccc(C(=O)Nc2ccc(SC(F)F)cc2)cc1	11.3	0.651 µM [falling, partial curve]	0.411 µM [falling, single point]
CN(CC(=O)Nc1cccc(F)c1)C(=O)c1cn2ccccc2n1	14.1	0.164 µM [rising, full curve, poor fit]	6.51 µM [falling, single point]
COC(/C=C/Nc1ccc(Cl)cc1)=C(C#N)C#N	-45.7	32.6 µM [falling, partial curve, poor fit]	
COc1ccc(NC(=O)CN(C)C(C)C(=O)NC(=O)NC2CCCCC2)cc1 (stereo unspecified)	2.31	0.13 µM [rising, full curve]	
CC(=O)Nc1ccc(-c2csc(NC(=O)C3CCN(S(=O)(=O)c4cccs4)CC3)n2)cc1	-30.7	5.8 µM [falling, single point]	29.1 µM [falling, single point]
CCC(C)NC(=O)c1ccccc1-c1ccccc1C(=O)NC(C)CC (stereo unspecified)	0.577	0.092 µM [falling, full curve, poor fit]	
CC(=O)Nc1ccc(NC(=O)CCOc2ccccc2C)cc1	11.5	9.2 µM [falling, partial curve]	
CCCc1nc2oc3cc(OC)ccc3c(=O)c2c(=O)n1Cc1ccco1	1.49	1.84 µM [rising, partial curve]	
CCOc1ccc(NC(=O)N2CCc3ccccc3C2)cc1	-6.44	7.31 µM [rising, partial curve]	0.259 µM [rising, full curve, poor fit]
CCC(CC)C(=O)Nc1c2c(nn1-c1ccc(OC)cc1)CS(=O)C2 (stereo unspecified)	3.45	23.1 µM [falling, partial curve]	
CC(=O)/C(N=Nc1c(C)n(C)n(-c2ccccc2)c1=O)=C(\C)O	49.5		20.6 µM [rising, single point]
CC(=O)Nc1ccc(CN2CCN(c3cccc(C(F)(F)F)c3)CC2)cc1	-0.445	0.731 µM [falling, full curve]	0.731 µM [falling, full curve]

A run of entries of the results above:
SMILES	cell number change [%]	AC50 [1]	AC50 [2]
O=C(CN1C(=O)NC2(CCCCCCC2)C1=O)Nc1ccc(Br)cc1	-8.48	0.58 µM [falling, full curve]	
COc1ccc(NC(=O)COc2ccc3c(c2)CCC3)cc1		5.8 µM [falling, full curve]	
CC(=O)Nc1ccc(S(=O)(=O)NC(C(=O)O)C2=CCC=CC2)cc1 (stereo unspecified)	-36.4		1.64 µM [falling, partial curve, poor fit]
COc1ccc(-n2c(Cc3cccn3C)nnc2SCC(=O)N2CCCc3ccccc32)cc1	117		
O=C(/C=C/Nc1cccc([N+](=O)[O-])c1)c1cccs1	132		32.6 µM [rising, partial curve, poor fit]
Cc1ccc(C(=O)CC(c2cccs2)S(=O)(=O)c2ccc(C)cc2)cc1 (stereo unspecified)	-3.25		
CCOc1ccc(OCC)c(NC(=O)CN2CCC(NC(=O)c3cccc(F)c3)CC2)c1	-0.471		
CC(C)COc1ccc(C(=O)Nc2ccc(SC(F)F)cc2)cc1	11.3	0.651 µM [falling, partial curve]	0.411 µM [falling, single point]

Next compounds follow.

SMILES	cell number change [%]	AC50 [1]	AC50 [2]
CN(C)CCCNCCCNC(=O)c1ccco1		29.1 µM [falling, single point]	4.11 µM [falling, partial curve, poor fit]
S=C(NCCc1ccccc1)N1CCc2ccccc2C1	-20.4	0.0651 µM [rising, single point]	
O=C(Cn1cnc2ccccc2c1=O)Nc1ccc(S(=O)(=O)N2CCCC2)cc1	10.3		
Cc1ccccc1Cn1cc(/C=N/n2cnnc2)c2ccccc21	200	18.4 µM [rising, partial curve]	18.4 µM [rising, partial curve]
Cc1cc(=O)oc2cc(OCC(=O)OCC(=O)NCc3ccc4c(c3)OCO4)ccc12	-11.1		1.3 µM [rising, full curve, poor fit]
COc1ccc(-c2csc3ncnc(N4CCN(c5cccc(C)c5C)CC4)c23)cc1	55.4		
C=C(C)CN(CC)C(=O)CCc1nnc(CCCc2ccccc2)o1	-8.82	0.184 µM [falling, full curve, poor fit]	
CCCCc1ccc(S(=O)(=O)N2CCN(C(=O)c3ccco3)CC2)cc1	-27.5	29.1 µM [rising, single point]	
NC(=O)c1ccc(NC(=O)CCN=C2NS(=O)(=O)c3ccccc32)cc1	-33.8	4.61 µM [falling, full curve]	5.8 µM [falling, full curve, poor fit]
CCCC(=O)Nc1ccccc1NC(=O)c1ccc(OCC)c(OCC)c1	6.04		
Cc1ccc(SCC(=O)NC(=O)NCc2ccccc2)c(C)c1	40.4	13 µM [rising, partial curve]	9.2 µM [rising, partial curve]
Cc1cc2nccc(-c3ccc(Cl)cc3Cl)n2n1	13.3	0.146 µM [rising, full curve]	
CCn1c(CN2CCCCCC2=O)nnc1SCc1cnc(-c2ccccc2)s1	2.33		0.00411 µM [falling, full curve, poor fit]
NNC(=O)C1=NOC(CNc2ncc(C(F)(F)F)cc2Cl)C1 (stereo unspecified)	1.65	6.51 µM [falling, single point]	0.326 µM [falling, partial curve, poor fit]
Fc1cc(Cl)ccc1NC(=S)NCCN1CCOCC1	-28.1	4.11 µM [falling, full curve, poor fit]	3.26 µM [falling, single point]
COC(=O)c1ccc2c(c1)NC(=O)C(N1CCCCC1)S2 (stereo unspecified)	2.58	8.2 µM [rising, partial curve]	
CCN1C(=O)[C@H]2[C@@H](c3ccc(-c4ccc(F)cc4)c(OC)c3)N3CCC[C@@]3(C(=O)OC)[C@H]2C1=O	26.1		
COc1ccc(/C=C/C(=O)NC(=S)N2CCN(c3ccccc3OC)CC2)cc1	25.2	0.00517 µM [rising, full curve, poor fit]	
